{"source": "the supplement of paper PMC11409438", "note": "Counter-ions that a name gives are not always drawn. This is one part of the list. Repeats are few or missing, and single values can be far off."}
{"test_system": "Caenorhabditis elegans ST65 (ncIs13[ajm-1::GFP])", "assay": "'Larvae/adult' ratio (MetaXpress pharynx counts; minimum value 1, so it appears to include adults; growth inhibition read-out)", "conditions": "10 µM; exposure time: 4-5 days from L1 at 20°C"}
{"compound": "COc1cc2c(NC3CCN(C(C)C)CC3)nc(N3CCC(F)(F)CC3)nc2cc1OCCCN1CCCC1", "'Larvae/adult' ratio": 2.11}
{"compound": "Cc1ccc(C(=O)N(CCCN)[C@@H](c2oc3cc(Cl)ccc3c(=O)c2Cc2ccccc2)C(C)C)cc1", "'Larvae/adult' ratio": 2.35}
{"compound": "O=C(c1cc(Cc2n[nH]c(=O)c3ccccc23)ccc1F)N1CCN(C(=O)C2CC2)CC1", "'Larvae/adult' ratio": 2.36}
{"compound": "NC(=O)N1CCC(CC(=O)N2CCC([C@H]3c4ncc(Br)cc4CCc4cc(Cl)cc(Br)c43)CC2)CC1", "note": "[Lonafarnib]", "'Larvae/adult' ratio": 2}
{"compound": "CCOCc1nc2c(N)nc3ccccc3c2n1CC(C)(C)O", "note": "[Resiquimod]", "'Larvae/adult' ratio": 2.13}
{"test_system": "Caenorhabditis elegans ST65 (ncIs13[ajm-1::GFP])", "assay": "vulvae per adult worm (MAPK/ERK-dependent vulval induction, MetaXpress) (vulvae/adult); higher = more vulval induction (less MAPK/ERK inhibition)", "conditions": "10 µM; exposure time: 4-5 days from L1 at 20°C"}
{"compound": "CC1(C)CCC(CN2CCN(c3ccc(C(=O)NS(=O)(=O)c4ccc(NCC5CCOCC5)c([N+](=O)[O-])c4)c(Oc4cnc5[nH]ccc5c4)c3)CC2)=C(c2ccc(Cl)cc2)C1", "note": "[Venetoclax (ABT-199, GDC-0199)]", "vulvae per adult worm": 0.897}
{"compound": "COc1ccc(COc2cc3oc(=O)c4cc(C(C)O)ccc4c3cc2OC)cc1", "note": "(stereo not drawn) [Palomid 529 (P529)]", "vulvae per adult worm": 0.846}
{"compound": "C=CC(=O)Nc1cccc(Oc2nc(Nc3ccc(N4CCN(C)CC4)cc3)nc3ccsc23)c1", "vulvae per adult worm": 0.593}
{"compound": "Cc1ccc(-c2cc(C(F)(F)F)nn2-c2ccc(S(N)(=O)=O)cc2)cc1", "note": "[Celecoxib]", "vulvae per adult worm": 0.692}
{"compound": "N#Cc1ccc(C(c2ccc(C#N)cc2)n2cncn2)cc1", "note": "[Letrozole]", "vulvae per adult worm": 1.61}
{"compound": "NC(=O)c1cnc2[nH]ccc2c1N[C@@H]1[C@@H]2CC3C[C@H]1C[C@@](O)(C3)C2", "vulvae per adult worm": 1.34}
{"compound": "CCNC(=O)c1noc(-c2cc(C(C)C)c(O)cc2O)c1-c1ccc(CN2CCOCC2)cc1", "note": "[Luminespib (AUY-922, NVP-AUY922)]", "vulvae per adult worm": 0.806}
{"compound": "CNC(=O)c1nn(C)c2c1C(C)(C)Cc1cnc(Nc3ccc(N4CCN(C)CC4)cc3)nc1-2", "vulvae per adult worm": 0.818}
{"compound": "CC(C)(C)c1cnc(CSc2cnc(NC(=O)C3CCNCC3)s2)o1", "vulvae per adult worm": 0.714}
{"compound": "Nc1cc(F)ccc1NC(=O)c1ccc(CNC(=O)/C=C/c2cccnc2)cc1", "note": "[Tucidinostat (Chidamide)]", "vulvae per adult worm": 0.864}
{"compound": "CC#CC(=O)N1CC[C@@H](n2c(=O)n(-c3ccc(Oc4ccccc4)cc3)c3c(N)ncnc32)C1", "note": "[ONO-4059 (GS-4059) hydrochloride]", "vulvae per adult worm": 1.28}
{"compound": "Nc1cccc2c1C(=O)N(C1CCC(=O)NC1=O)C2=O", "note": "(stereo not drawn) [Pomalidomide]", "vulvae per adult worm": 1}
{"compound": "COc1cc2c(N3CCN(C(=O)Nc4ccc(OC(C)C)cc4)CC3)ncnc2cc1OCCCN1CCCCC1", "note": "[Tandutinib (MLN518)]", "vulvae per adult worm": 0.86}
{"compound": "O=C(O)c1ccc(CN2CCC(CN[C@@H]3C[C@H]3c3ccccc3)CC2)cc1", "vulvae per adult worm": 1.06}
{"compound": "CCN(CC)C(=S)SSC(=S)N(CC)CC", "note": "[Disulfiram]", "vulvae per adult worm": 0.857}
{"compound": "Cn1cc(-c2ccc(F)c(C(F)(F)F)c2)nc1C1CCN(c2ncnc3[nH]ncc23)CC1", "vulvae per adult worm": 0.968}
{"compound": "O=C(O)CC[C@H]1CC[C@@](c2cc(F)ccc2F)(S(=O)(=O)c2ccc(Cl)cc2)CC1", "vulvae per adult worm": 0.524}
{"compound": "CCCCCCCCCCCCCCCCOP(=O)([O-])OCC[N+](C)(C)C", "note": "[Miltefosine]", "vulvae per adult worm": 0.59}
{"compound": "N#CC1(c2ccc(NC(=O)c3cccnc3NCc3ccncc3)cc2)CCCC1", "vulvae per adult worm": 0.64}
{"compound": "CCc1c2c(nc3ccc(O)cc13)-c1cc3c(c(=O)n1C2)COC(=O)[C@]3(O)CC", "vulvae per adult worm": 1.08}
{"compound": "Cc1cc(Nc2ncc(Cl)c(Nc3ccccc3S(=O)(=O)C(C)C)n2)c(OC(C)C)cc1C1CCNCC1", "note": "[Ceritinib (LDK378)]", "vulvae per adult worm": 0.825}
{"compound": "CCN(CC)CCCC(C)Nc1c2ccc(Cl)cc2nc2ccc(OC)cc12", "note": "(stereo not drawn) [Quinacrine Dihydrochloride Dihydrate]", "vulvae per adult worm": 0.721}
{"compound": "c1cc(CN2CCCNCCNCCCNCC2)ccc1CN1CCCNCCNCCCNCC1", "note": "[Plerixafor (AMD3100)]", "vulvae per adult worm": 1.12}
{"compound": "CC(C)c1cc(-c2n[nH]c(=O)n2-c2ccc3c(ccn3C)c2)c(O)cc1O", "note": "[Ganetespib (STA-9090)]", "vulvae per adult worm": 0.909}
{"compound": "CC[C@H](NC(=O)[C@H](C)NC)C(=O)N1C[C@@H](O)C[C@H]1Cc1c(-c2[nH]c3cc(F)ccc3c2C[C@@H]2C[C@H](O)CN2C(=O)[C@H](CC)NC(=O)[C@H](C)NC)[nH]c2cc(F)ccc12", "note": "[Birinapant]", "vulvae per adult worm": 1.05}
{"compound": "CC1(C)OCCn2c1nc1c(N3CCOCC3)nc(-c3cnc(N)nc3)nc12", "vulvae per adult worm": 0.971}
{"compound": "NC1(c2ccc(-c3nc4ccn5c(=O)[nH]nc5c4cc3-c3ccccc3)cc2)CCC1", "vulvae per adult worm": 1.03}
{"compound": "COc1ccccc1S(=O)(=O)Nc1ccc2c(c1)CN(C)C(=O)N2", "vulvae per adult worm": 1.26}
